Assay results as given in PMC5742726.
No constants are given. Whether binding was seen depends on the method and setting. Binding seen in cells or lysates may run through a third protein. Some binding calls cover weakened binding; strength is not graded here.

Amino acid sequences for entries named in this document (tags omitted). A change or cut given only in a name is not applied to a line headed by its entry. Chains listed by the source or under a name are the forms on record and can include a tag or linker.
UniProt P46938: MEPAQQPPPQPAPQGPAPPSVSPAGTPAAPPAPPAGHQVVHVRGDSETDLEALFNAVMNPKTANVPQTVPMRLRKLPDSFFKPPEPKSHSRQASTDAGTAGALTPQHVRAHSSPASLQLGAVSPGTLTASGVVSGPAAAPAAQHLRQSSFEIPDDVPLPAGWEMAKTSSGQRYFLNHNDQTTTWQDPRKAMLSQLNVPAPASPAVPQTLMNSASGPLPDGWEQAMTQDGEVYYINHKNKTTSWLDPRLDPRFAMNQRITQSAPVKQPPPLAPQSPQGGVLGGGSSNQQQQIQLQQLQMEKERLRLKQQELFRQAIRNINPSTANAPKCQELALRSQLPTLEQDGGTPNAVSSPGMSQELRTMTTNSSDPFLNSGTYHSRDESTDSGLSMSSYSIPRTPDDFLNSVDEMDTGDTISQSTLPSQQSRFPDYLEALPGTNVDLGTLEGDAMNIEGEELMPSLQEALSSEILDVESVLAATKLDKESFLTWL
phosphorylated CREB (p‐CREB), endogenous in N2a cells (Q01147-1, form named): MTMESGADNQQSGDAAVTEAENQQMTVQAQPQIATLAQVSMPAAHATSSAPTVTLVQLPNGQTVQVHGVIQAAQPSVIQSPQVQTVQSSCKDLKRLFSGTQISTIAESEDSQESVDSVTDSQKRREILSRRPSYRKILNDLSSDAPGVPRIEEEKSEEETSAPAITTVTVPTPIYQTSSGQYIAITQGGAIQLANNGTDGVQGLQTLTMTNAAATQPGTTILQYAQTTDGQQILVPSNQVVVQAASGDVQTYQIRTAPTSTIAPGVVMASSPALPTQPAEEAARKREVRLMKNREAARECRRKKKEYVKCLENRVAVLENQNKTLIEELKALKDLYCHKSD

Experiments:
[1] = target: FLAG‐tagged full‐length YAP (UniProt P46938); experiment: co-IP; FLAG IP from N2a cells transfected with FLAG-tagged full-length, N-terminally or C-terminally deleted YAP; Western blot for CREB
[2] = target: Yes‐associated protein (YAP), endogenous in N2a cells (mouse (endogenous in N2a)) (UniProt P46938); experiment: proximity ligation; Duolink PLA on fixed, permeabilised N2a cells treated with RA; mouse anti-YAP and rabbit anti-CREB antibodies; endogenous proteins
[3] = target: Yes‐associated protein (YAP), endogenous in N2a cells (mouse (endogenous in N2a)) (UniProt P46938); experiment: co-IP; IP of endogenous YAP from nuclear extracts of RA-treated N2a cells, antibody cross-linked to protein A beads, 4°C overnight, washed with 0.1% Triton X-100 PBS; Western blot for YAP, CREB, p-CREB and GAPDH; IgG control IP

Substance | binding [1] | binding [2] | binding [3]
cAMP response element‐binding protein (CREB), endogenous in N2a cells (total CREB) (from UniProt Q01147-1 1-341) | binds | binds | binds
phosphorylated CREB (p‐CREB), endogenous in N2a cells (from UniProt Q01147-1 1-341) | – | – | binds
